The source of these data is the supplement of paper PMC5949888.

Most values lie at the floor of the assay. Slopes are relative: functional sequences can read slightly below zero.

This data set concerns Saccharomyces cerevisiae PS128 hsf1 delta, HSF1(1-493) fusion. The data set is described as follows: growth estimate (transactivation domain function in HSF1 fusion, heat-shock survival) (a.u. (slope of normalised read count over time)); higher = stronger growth at 37°C, i.e. more transactivation activity. The following applies: library: random library.
With TVIPLENKLESA, the growth estimate was below -0.25. Turning to HTSRYGSRFGDVHEQQSLRA, the growth estimate is below -0.25.

Turning to RSDRCCMTALVSPQFSRRLL, the growth estimate is below -0.25.

As for TIEILTLQVLCTVSRIVRRG, the growth estimate was below -0.25. For STEKPTAIVLVNVLRRMPAR, the growth estimate is below -0.25. The same measure for ARNYKSRPCKSLPRIYRRRT: below -0.25; for TSHQLPGPFPCSDLLYHIRV: below -0.25; for PELRLRDKQVTRPSRVS: below -0.25. The same measure for RSSCPVSLHLQK: below -0.25; for GVSCLHIYEQALSQECASTS: below -0.25; for KRREQ: below -0.25. The same measure for PLDGD: below -0.25. On to VFAL, for which the growth estimate was below -0.25. The same measure for EGYM: below -0.25; for EVPFLPARSIGSNDLRTQVG: below -0.25; for GGTYRELTECGRSDPTFQPF: below -0.25.

Regarding LRIPSASRKLLVCVFACAGP, the growth estimate is -0.216. In the case of KPTCPVLL it was below -0.25; in that of AAGDRHGTASFSFCPK, below -0.25. In the case of PFKVRTSVAVEQLRHELLSA it was below -0.25; in that of KTCNGLSVVVCPVLAVRCSQ, below -0.25; in that of KDARITS, below -0.25.

For GQRQVLPYRY, the growth estimate is below -0.25. The same measure for TRTL: below -0.25. In the case of LQAWPNSTSVFSLKSGGKSK it was below -0.25. Take IANRSGTDSWRFGPSARAAN: the growth estimate was below -0.25. In the case of PTACHFYHCDQV it was below -0.25; in that of GMIMTQSGTSGFTSKCIGFG, -0.245. In the case of AAQLLCCGTRSVGHRRPPHS, the growth estimate is below -0.25. Consider SVSRPTSLGCRGPRDVARCH, for which the growth estimate was below -0.25. Regarding WAEVALELVVPRSVPRKWEM, the growth estimate was below -0.25. For the substance VLCVLTNRSHPEKVVIVYTR, the growth estimate is below -0.25.

Regarding NVRYPLARLTLEKCCSRGAR, the growth estimate was below -0.25. In the case of RTPR it was below -0.25; in that of LVGGFGRLNSDSAPG, below -0.25. In the case of RDRHGY it was below -0.25. The same measure for SESSRTDAVYRQ: below -0.25.

With RARSFGLIRPMCIFSSVKDL, the growth estimate was below -0.25. The same measure for PVGSVRP: below -0.25. As for VGRRARLPGVVSLRVALIMA, the growth estimate is below -0.25. With GMENGYVDM, the growth estimate is below -0.25. In the case of VCYGCKLSPLILLIASPA it was below -0.25; in that of LTVHTRMVGHNVQLIGRHIL, below -0.25. In the case of SNGAKRSLNSIIIAISGVGP it was -0.231; in that of LGPLSEQFRG, below -0.25; in that of IVVSRQCLNRGFFIDQKCSA, below -0.25. The same measure for GRVIWSLALVIRAVGITKPT: below -0.25.

Regarding VQC, the growth estimate was below -0.25. The same measure for ERPAPRWWGVHGSKGVVYVE: below -0.25; for KGVH: below -0.25. In the case of KDCTGRHSEKKKLTVAKDAW it was below -0.25.

Consider FICLS, for which the growth estimate was below -0.25.

On to GLIAKSTVGASRPHVPKHRD, for which the growth estimate was below -0.25.

VVYHRARSEGGRPMAKRRQR: the growth estimate is below -0.25.

With RAGLTNSR, the growth estimate was below -0.25. The same measure for IESGSHILA: below -0.25. The same measure for SVLQPRAADVNGGSARSRRT: below -0.25. The same measure for VPLTWFVPMECKR: below -0.25. As for LGCYSVDSESKCLSRRHPLA, the growth estimate was below -0.25. The same measure for ELPRIKAS: below -0.25; for GKALESILRIERLRRSLFST: below -0.25; for SARSFYLSSNIWESWQYSKD: below -0.25. The same measure for GSDLGIINETLLMVLCDAGY: below -0.25. In the case of RHGLRH, the growth estimate was -0.239. The same measure for WEVWLYTFLRVARAYDSGTS: below -0.25; for SINQWCDAIAV: below -0.25; for LSHVSRSMKRALTECTPVST: below -0.25. The same measure for MMRYVRPGSPITVRNYRVNY: below -0.25; for SRTQVL: -0.229; for LSSLGSARYIAILTCPNIPL: below -0.25. The same measure for DKVNKRSMKLCSSWLAP: below -0.25; for RHGIYK: below -0.25. As for TDGKSGPWIKTYLDGSGSLR, the growth estimate is below -0.25.

As for RYGGMCFIRWEADSLCDIST, the growth estimate is below -0.25. On to CHRDF, for which the growth estimate was below -0.25. Take VSLSGETLGRLTFVQYSNKC: the growth estimate is below -0.25. In the case of RFLADAPGIPGPKLPHGHLW it was below -0.25. Take DGS: the growth estimate is below -0.25. The same measure for PQDKC: below -0.25; for GTGPEAGLLVKTGLDAGKQA: below -0.25. Turning to RTAIASHEGHFIKADGSTRH, the growth estimate is below -0.25.

Turning to VPSRGAGGPMGCDNGRATFL, the growth estimate is below -0.25. In the case of RMQAPKVLVKMRLGPGQKVS it was below -0.25; in that of YSPDERRHEGGKTETW, below -0.25; in that of HQQQNGTMKFSEVVEDIEAE, below -0.25. For YRVLERSG, the growth estimate is below -0.25. Regarding SGRF, the growth estimate is below -0.25. As for RIESR, the growth estimate was below -0.25. The same measure for TMVRGHEQQSCW: below -0.25; for WRICTCVRIHQTIDMVLDAP: below -0.25. In the case of HQTEDAAEVFADFLFLRNGC it was below -0.25; in that of TSSARKRTTSPPSWADSGSH, below -0.25. The same measure for RMAGCSGFANGRIGMDLSRR: below -0.25; for HVLRVSEFPGATGRRQRPNP: below -0.25. In the case of TTRLVLNFYEAEEAGCGVTS, the growth estimate is -0.09. The same measure for YPSTLVQSWVIAVWSVTTKH: below -0.25; for SFMTP: below -0.25. In the case of MESGMLLGNTYDISNRDPLK it was -0.2. The same measure for PWHLYEGEMAPLLAPSEFVC: -0.246.

Take NERQRVSRNPWSKMWPRNGQ: the growth estimate was below -0.25. For SGGPPDHVLCRLDIHS, the growth estimate was below -0.25. The same measure for LLNWCGILFGNPEATIRGGV: below -0.25; for GLVLICRCGSRESRGWPFGI: below -0.25; for LDI: below -0.25. The same measure for TVHAHSGAEPITKFGGRSVI: below -0.25. The same measure for YRHKHFKRQNVNVYQCVNPT: below -0.25; for WPEPFMKLLVVSR: below -0.25; for ANTITKSQNL: below -0.25. As for RWDHALFHQLTRCPI, the growth estimate is below -0.25. Consider WWAESRST, for which the growth estimate was below -0.25.

For the substance HGLAVPEARKFDSGEIDTHP, the growth estimate is below -0.25. The same measure for RHLVSPGERSGSNRDV: below -0.25; for GSSIIRSWALC: below -0.25.
